Test results reported in patent US10525115B2 (Immatics Biotechnologies GmbH, priority 2014, dated 2020).

What was measured:
Design in all cases: species or system human
[1] = tested on: BMNC of healthy donors; test: HLA class I ligandome analysis (LC-MS/MS) of healthy donor BMNC; details: 5 BMNC samples
[2] = tested on: PBMC of healthy donors; test: HLA class I ligandome analysis (LC-MS/MS) of healthy donor PBMC; details: 30 PBMC samples
[3] = tested on: primary AML samples; test: HLA class I ligandome analysis (W6/32 immunoaffinity purification, LC-MS/MS) of primary AML samples; details: 15 AML samples

B1: DNAJC2 DnaJ (Hsp40) homolog, subfamily C, member 2: established AML-associated antigen, source protein of the HLA ligands listed under it (protein, UniProt Q99543 1-621, looked up)
DnaJ homolog subfamily C …: MLLLPSAADGRGTAITHALTSASTLCQVEPVGRWFEAFVKRRNRNASASFQELEDKKELSEESEDEELQLEEFPMLKTLDPKDWKNQDHYAVLGLGHVRYKATQRQIKAAHKAMVLKHHPDKRKAAGEPIKEGDNDYFTCITKAYEMLSDPVKRRAFNSVDPTFDNSVPSKSEAKDNFFEVFTPVFERNSRWSNKKNVPKLGDMNSSFEDVDIFYSFWYNFDSWREFSYLDEEEKEKAECRDERRWIEKQNRATRAQRKKEEMNRIRTLVDNAYSCDPRIKKFKEEEKAKKEAEKKAKAEAKRKEQEAKEKQRQAELEAARLAKEKEEEEVRQQALLAKKEKDIQKKAIKKERQKLRNSCKTWNHFSDNEAERVKMMEEVEKLCDRLELASLQCLNETLTSCTKEVGKAALEKQIEEINEQIRKEKEEAEARMRQASKNTEKSTGGGGNGSKNWSEDDLQLLIKAVNLFPAGTNSRWEVIANYMNIHSSSGVKRTAKDVIGKAKSLQKLDPHQKDDINKKAFDKFKKEHGVVPQADNATPSERFEGPYTDFTPWTTEEQKLLEQALKTYPVNTPERWEKIAEAVPGRTKKDCMKRYKELVEMVKAKKAAQEQVLNASRAKK
**Q.** What does the source list for B1?
**A.** Number of positive healthy donors (BMNC) ([1]; HLA class I ligandome, second figure of the cell): 0; rep. frequency % in healthy donors (BMNC) ([1]; source protein level): 0.0%; Number of positive healthy donors (PBMC) ([2]; HLA class I ligandome, first figure of the cell): 1; rep. frequency % in healthy donors (PBMC) ([2]; source protein level): 3.3%; Number of positive AMLs ([3]; HLA class I ligandome): 0; rep. frequency % in AMLs ([3]; source protein level, HLA class I): 0.0%
